In patent US9365597B2, “Mitochondria-targeted inhibitors of cytochrome c peroxidase for protection from apoptosis” (Brock University, priority 2011, dated 2016):
Some entries share one result that the patent states for a list of compounds.

Tested on: C57BL/6NTac female mice
Assay: Survival of mice after 9.25 Gy total body irradiation, cesium irradiator
Format: in vivo, mouse
Conditions: cesium source, 5 mg per kg i.p. 10 min after 9.25 Gy

CCCCCCC(CCCCCCCCCCC(=O)OCCC[P+](c1ccccc1)(c1ccccc1)c1ccccc1)n1ccnc1.[Br-] (centres unmarked) [TPP-ISA]
P (two-sided log-rank test) versus mice exposed to total body irradiation only: < 0.0001

CCCCCCC(C/C=C\CCCCCCCC(=O)OCCC[P+](c1ccccc1)(c1ccccc1)c1ccccc1)n1ccnc1.[Br-] (centres unmarked) [TPP-IOA]
P (two-sided log-rank test) versus mice exposed to total body irradiation only: < 0.0001
